Measurements reported in paper PMC12457637, “An aptamer-drug conjugate for promising cancer therapy with comprehensive evaluation from rodents to non-human primates” (Signal Transduction and Targeted Therapy, 2025).

System: PTK7 (cynomolgus monkey)
Experiment: SPR
Conditions: 5 mM Mg2+, Kd only in figure, SPR (Biacore 8K, CM5): DPBS + 5 mM MgCl2, 10 uL/min, 180 s association and dissociation, temperature and pH of running buffer not stated, commercial protein, protein details: His, folded or branched DNA

Row | Sequence | binding result (400 nM, 3'-C6-S-maleimide MC-VC-PAB-MMAE conjugate) | binding result
1 | ATCTAACTGCTGCGCCGCCGGGAAAATACTGTACGGTTAGA [Sgc8c-M] | binds | –
2 | ATCTAACTGCTGCGCCGCCGGGAAAATACTGTACGGTTAGA [Sgc8c] | – | binds

The exact form of at least one protein or probe is not confirmed.
